These results are taken from PubChem BioAssay AID248 (DTP/NCI, 2004).

The experiment relates to L1210 leukemia ip in BDF1 mice, survival T/C. Briefly: NCI In Vivo Anticancer Drug Screen. Data for tumor model L1210 Leukemia (intraperitoneal) in B6D2F1 (BDF1) mice. The settings on record: T/C endpoint: mean survival time, higher T/C = longer survival.
[1] abbreviates: dose: 100.0 mg/kg/injection, schedule: Q01DX009 (ip), vehicle: saline.
The mark [2] stands for this setting: dose: 100.0 mg/kg/injection, schedule: Q01DX001 (ip), vehicle: saline.
Setting [3] is: dose: 200.0 mg/kg/injection, schedule: Q01DX001 (ip), vehicle: saline.
The mark [4] stands for this setting: dose: 400.0 mg/kg/injection, schedule: Q01DX001 (ip), vehicle: saline.
The mark [5] stands for this setting: dose: 50.0 mg/kg/injection, schedule: Q01DX001 (ip), vehicle: saline.

The list is a part of this screen's results and no random one: its compounds were picked by chemical class. Not every dose and run of a compound is shown. T/C is the treated group as % of the vehicle group. Some entries give survivors of the animals treated and no T/C: the source holds a T/C of zero for them, seemingly a mark for toxic or unscored doses. Some doses without a T/C left all or most animals alive at the check, yet need not have been tolerated: the source hardly ever lists a survival T/C far under the control, and the zero likely stands for such cases as well. Counts of survivors are from the toxicity check (mostly the fifth day) where no day follows; animals may have died later. Schedules are NCI's codes, taken here to give the interval after Q, in days (D) or hours (H), and the number of doses after X. Some metal complexes and salts are drawn in pieces, as in the source, so charges may not balance. For survival time, the PubChem record calls one and a half times the control and up active, and a quarter to a half above the control has no call in these data; cut-offs in other NCI protocols can differ. Some doses were run more than once; the results are listed from low to high. Some entries show no survivor count and are marked so; the dose need not have been tolerated. Some T/C values are followed by the survivors on the day toxicity was checked, most often the fifth; where neither a count nor a note follows, no animal had died by that day.

Turning to `CC(=O)OC(SC(OC(C)=O)C(Cl)(Cl)Cl)C(Cl)(Cl)Cl` (stereo not drawn), the T/C is 102 % of control (dose: 100.0 mg/kg/injection, schedule: Q01DX009 (ip), vehicle: gum acacia); 101 % of control (dose: 100.0 mg/kg/injection, schedule: Q04DX003 (ip), vehicle: gum acacia); 91 % of control (dose: 200.0 mg/kg/injection, schedule: Q01DX009 (ip), vehicle: gum acacia); 94 % of control (dose: 200.0 mg/kg/injection, schedule: Q04DX003 (ip), vehicle: gum acacia); 89 % of control [4 of 6 alive] (dose: 400.0 mg/kg/injection, schedule: Q01DX009 (ip), vehicle: gum acacia); 92 % of control (dose: 400.0 mg/kg/injection, schedule: Q04DX003 (ip), vehicle: gum acacia).

With `COc1cc(OC)c(Nc2c([N+](=O)[O-])cc([N+](=O)[O-])cc2[N+](=O)[O-])cc1Cl`, the T/C reads like this: under setting [1], 91 % of control; (dose: 200.0 mg/kg/injection, schedule: Q01DX009 (ip), vehicle: saline) 93 % of control; (dose: 400.0 mg/kg/injection, schedule: Q01DX009 (ip), vehicle: saline) 96 % of control.

For `CCOP(=O)(NC(=S)N1CC1)NC(=S)N1CC1`, the T/C (dose: 100.0 mg/kg/injection, schedule: Q01DX001 (ip), vehicle: carboxymethylcellulose (CMC)) was 96 % of control. The survivor count runs as follows: (dose: 200.0 mg/kg/injection, schedule: Q01DX001 (ip), vehicle: carboxymethylcellulose (CMC)) 0 of 6; (dose: 400.0 mg/kg/injection, schedule: Q01DX001 (ip), vehicle: carboxymethylcellulose (CMC)) 0 of 6.

As to `c1ccc2c(c1)CC1(C2)C[N+]12CCCCC2`, the T/C (dose: 25.0 mg/kg/injection, schedule: Q01DX009 (ip), vehicle: saline) is 100 % of control [5 of 6 alive]; the T/C (dose: 50.0 mg/kg/injection, schedule: Q01DX009 (ip), vehicle: saline) is 107 % of control; the T/C under setting [2] is 87 % of control. Further, the survivor count is on record as 0 of 6 under setting [1], 1 of 6 under setting [3] and 0 of 6 under setting [4].

Take `COc1ccc(NC(=O)N(CCCl)CCCl)cc1`: the T/C (dose: 1.0 mg/kg/injection, schedule: Q01DX009 (ip), vehicle: saline) is 98 % of control; the T/C (dose: 2.5 mg/kg/injection, schedule: Q01DX009 (ip), vehicle: saline) was 101 % of control; the T/C (dose: 5.0 mg/kg/injection, schedule: Q01DX009 (ip), vehicle: saline) was 100 % of control; the T/C (dose: 10.0 mg/kg/injection, schedule: Q01DX009 (ip), vehicle: saline) is 103 % of control; the T/C (dose: 21.0 mg/kg/injection, schedule: Q01DX009 (ip), vehicle: saline) was 147 % of control; the T/C (dose: 36.0 mg/kg/injection, schedule: Q01DX009 (ip), vehicle: saline) was 153 % of control. For the same compound, the T/C runs as follows: under setting [5], 102 and 125 % of control; (dose: 66.0 mg/kg/injection, schedule: Q01DX009 (ip), vehicle: saline) 131 % of control; under setting [2], 111 and 138 % of control; under setting [1], 104 % of control [5 of 6 alive]; under setting [3], 127 and 138 % of control; under setting [4], 152 % of control [5 of 6 alive]. In addition, the survivor count by setting is: (dose: 150.0 mg/kg/injection, schedule: Q01DX009 (ip), vehicle: saline) 5 of 6; under setting [4], 0 of 4.

Regarding `Clc1ccc(P(Cl)Cl)cc1`, the T/C (dose: 25.0 mg/kg/injection, schedule: Q01DX009 (ip), vehicle: saline with Tween-80) was 98 % of control; the T/C (dose: 25.0 mg/kg/injection, schedule: Q04DX003 (ip), vehicle: saline with Tween-80) is 96 % of control; the T/C (dose: 50.0 mg/kg/injection, schedule: Q01DX009 (ip), vehicle: saline with Tween-80) was 96 % of control; the T/C (dose: 50.0 mg/kg/injection, schedule: Q04DX003 (ip), vehicle: saline with Tween-80) was 98 % of control; the T/C (dose: 100.0 mg/kg/injection, schedule: Q01DX009 (ip), vehicle: saline with Tween-80) was 93 % of control; the T/C (dose: 100.0 mg/kg/injection, schedule: Q04DX003 (ip), vehicle: saline with Tween-80, evaluated on day 20) was 93 % of control. Besides, the T/C (dose: 100.0 mg/kg/injection, schedule: Q04DX003 (ip), vehicle: saline with Tween-80, evaluated on day 30) is 107 % of control. Moreover, the survivor count reads like this: (dose: 200.0 mg/kg/injection, schedule: Q04DX003 (ip), vehicle: saline with Tween-80) 4 of 6; (dose: 400.0 mg/kg/injection, schedule: Q04DX003 (ip), vehicle: saline with Tween-80) 1 of 6.

As to `CC(N)C(=O)O.CCCCO[P+](=O)O`, the T/C reads like this: (dose: 100.0 mg/kg/injection, schedule: Q04DX003 (ip), vehicle: saline) 97 % of control; (dose: 200.0 mg/kg/injection, schedule: Q04DX003 (ip), vehicle: saline) 95 % of control. In addition, the survivor count (dose: 400.0 mg/kg/injection, schedule: Q04DX003 (ip), vehicle: saline) is 6 of 6.

For `CN(C)P(C)(N)(Cl)N(C)C`, the T/C (dose: 100.0 mg/kg/injection, schedule: Q01DX001 (ip), vehicle: steroid suspending solution) is 100 % of control [survivor count not shown].

Regarding `N/C(=N/[N+](=O)[O-])N(CCBr)N=O.NC1=CCCN1[N+](=O)[O-]`, the T/C runs as follows: under setting [5], 98 % of control; (dose: 56.0 mg/kg/injection, schedule: Q01DX015 (ip), vehicle: saline) 93 % of control; (dose: 84.0 mg/kg/injection, schedule: Q01DX015 (ip), vehicle: saline) 96 % of control; under setting [2], 98 % of control; (dose: 126.0 mg/kg/injection, schedule: Q01DX015 (ip), vehicle: saline) 96 % of control; (dose: 189.0 mg/kg/injection, schedule: Q01DX015 (ip), vehicle: saline) 100 % of control. Also, under setting [3], the T/C is 98 % of control. Further, the survivor count under setting [4] is on record as 2 of 4.
